Results taken from publication PMC7819943, “Rice protein-binding microarrays: a tool to detect cis-acting elements near promoter regions in rice”.
This is one part of the list.

Chains of the proteins cited; added tags and fusions are not shown.
UniProt Q0JBA9, entry or part of it: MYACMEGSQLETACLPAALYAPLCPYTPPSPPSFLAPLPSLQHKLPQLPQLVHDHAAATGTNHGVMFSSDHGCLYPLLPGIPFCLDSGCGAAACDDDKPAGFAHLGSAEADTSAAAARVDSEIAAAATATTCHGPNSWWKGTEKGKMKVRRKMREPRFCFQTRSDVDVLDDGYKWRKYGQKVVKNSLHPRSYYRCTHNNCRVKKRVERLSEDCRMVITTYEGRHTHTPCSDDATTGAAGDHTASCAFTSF

What follows are sequences tested against OsWRKY34 (Oryza sativa, UniProt Q0JBA9 1-250) (assay: protein-binding microarray (RPBM); PBS, 2% BSA, 51.3 ng/ul salmon testes DNA, 50 uM zinc acetate, 200 nM TF, 25 C, 1 h; high values mean tight binding). Conditions: protein: recombinant; tags: N-terminal polyhistidine and DsRed monomer fusion (pET32a); label: CyDye5-dUTP incorporated in the synthesized complementary strand; 3' TTTTT single-stranded linker to array surface; dsDNA, one strand shown.
Method in brief: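 In PBS with 2% BSA, salmon testes DNA and 50 µM zinc acetate, 200 nM protein was incubated on a custom Agilent array at 25 °C for 1 h and then washed off. The array had been made double-stranded by primer extension with Cy5-dUTP and blocked with 2% BSA. The proteins were transcription factors fused N-terminally to polyhistidine and DsRed, expressed in E. coli BL21-CodonPlus and purified on Ni–NTA. The binding signal is per-feature fluorescence intensity (arbitrary units) from an Axon 4000B scanner.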

Row | Sequence | binding signal
1 | CTGTGATGTTGCACACTGTCTCACTTCATTTGGCTCATGACGGAGTCACCTAGTGCAG | 10700 fluorescence intensity (a.u.)
2 | AAATCAACAAGGGTCTAGTGTTTTTCTTCCGCCTCAAAATCGGAGTCACCTAGTGCAG | 8620 fluorescence intensity (a.u.)
3 | ACTTGGCACCCTCTCCCGTCCCGCCGCGGCCGCGCGTTTCCGGAGTCACCTAGTGCAG | 9970 fluorescence intensity (a.u.)
4 | ACCGATTTCTCTCTTTTTGCAACAAATCGGATCACGTCTTCGGAGTCACCTAGTGCAG | 12700 fluorescence intensity (a.u.)
5 | GCATGGTAGCGCCCGCGCTTAATTCTTCTCACATGCATGTCGGAGTCACCTAGTGCAG | 8480 fluorescence intensity (a.u.)
6 | ACATCACCTGCCGATCATTAAGCATTTACACCGTGAGTCTCGGAGTCACCTAGTGCAG | 8420 fluorescence intensity (a.u.)
7 | AAGAATATTCTTTGAAGTGTTTTGTGTTGTACTTGCATTCCGGAGTCACCTAGTGCAG | 8990 fluorescence intensity (a.u.)
8 | GTGTATTTATGGTTTTTTTTTCAACGTTTGACCATCCGTTCGGAGTCACCTAGTGCAG | 12300 fluorescence intensity (a.u.)
9 | CTAATATTTTTTATTTTTTAATTCCGAATTTCAACTATTTCGGAGTCACCTAGTGCAG | 9020 fluorescence intensity (a.u.)
10 | CGTTTCGTTCCTTCCCGTTCCCGAGGAAATATCCCCATTCCGGAGTCACCTAGTGCAG | 9070 fluorescence intensity (a.u.)
11 | TTAGACCTCATTGCTATTTCTTTATTGATCCGCCACTGATCGGAGTCACCTAGTGCAG | 8340 fluorescence intensity (a.u.)
12 | TTCTCTCGTTGACCTAAAAACTTCTCTTTCACCGAACATCCGGAGTCACCTAGTGCAG | 10600 fluorescence intensity (a.u.)
13 | GACCTATGTGCTAATTATCACTAGTAGCTATCCTTTTGTTCGGAGTCACCTAGTGCAG | 8550 fluorescence intensity (a.u.)
14 | CTTACTTGGTCACTCCCTTTTTGTTATCTGATTTAGACGTCGGAGTCACCTAGTGCAG | 8230 fluorescence intensity (a.u.)
15 | CTTCGCCGTCGCCGCCTCCGCCGCCGCGGGCTCGCATCGCCGGAGTCACCTAGTGCAG | 8420 fluorescence intensity (a.u.)
16 | CGACGTACCGTAGCCGATTTCTGTTGCTATTATCATGTTCCGGAGTCACCTAGTGCAG | 9450 fluorescence intensity (a.u.)
17 | TCCGTGCGGTCCGCCCGTTCGTTATCCGAATCCACCCAAACGGAGTCACCTAGTGCAG | 8120 fluorescence intensity (a.u.)
18 | TCTGCCTCACCCTACTTTTTTGTCATGTCCATAAACCACACGGAGTCACCTAGTGCAG | 10600 fluorescence intensity (a.u.)
19 | ACTATTGAAAATGATTCACTGTACTCACTAATAGCATTTTCGGAGTCACCTAGTGCAG | 9520 fluorescence intensity (a.u.)
20 | ATCGAATGGTTGGTTCGGTTTGGTTTTGATTGATCGATATCGGAGTCACCTAGTGCAG | 22300 fluorescence intensity (a.u.)
21 | ATCACATCACATCACATACGGGGATCCTGGCGGGGTAGGACGGAGTCACCTAGTGCAG | 9610 fluorescence intensity (a.u.)

Row | Sequence | binding signal
22 | CCACGTCGCCCTTGTTTATTTCCCACCAAACAAAAAAACCCGGAGTCACCTAGTGCAG | 9030 fluorescence intensity (a.u.)
23 | TTGTTTTTTCGTTCTTTTTTTTGGCATTGTTTCAGCTTCTCGGAGTCACCTAGTGCAG | 10800 fluorescence intensity (a.u.)
24 | TGCCGACTGCCCACGAGTCAACTTCGTTTGCCGACTCCGACGGAGTCACCTAGTGCAG | 8500 fluorescence intensity (a.u.)
25 | GTTTCTTGTGTTCATGGCCTCTTCTTGCCGCAGAGAGAGACGGAGTCACCTAGTGCAG | 8400 fluorescence intensity (a.u.)
26 | CCGCCACCACCGCTGCTAAGCCGCCATCGCCGTTGTTTTTCGGAGTCACCTAGTGCAG | 12400 fluorescence intensity (a.u.)
27 | ACTGGAGAAGCTATTAGCTATATATACCGCTGCAATGCTCCGGAGTCACCTAGTGCAG | 8530 fluorescence intensity (a.u.)
28 | CTTCTTCGATCTCCGGCAATCGCTCCATCGATCGGCGCTTCGGAGTCACCTAGTGCAG | 8370 fluorescence intensity (a.u.)
29 | GATATTTGTAACTGTTGTGTGTCTAGTTATCTGCATTTGACGGAGTCACCTAGTGCAG | 10700 fluorescence intensity (a.u.)
30 | ATCCCCTCACTTCTGGCGCATTCCGCTCCCGCGAAAATCCCGGAGTCACCTAGTGCAG | 9510 fluorescence intensity (a.u.)
31 | AATCGTATTACTGTATGCTCTCTTGGTTGATTGCACATTCCGGAGTCACCTAGTGCAG | 13300 fluorescence intensity (a.u.)
32 | GCAGCATGTAGCTACCGTCCAGTATTCTTTGCTTCTTCCACGGAGTCACCTAGTGCAG | 11800 fluorescence intensity (a.u.)
33 | CTCACCGTGCCGACCACCACCTCTCCCAACCTCGCCGTCGCGGAGTCACCTAGTGCAG | 9250 fluorescence intensity (a.u.)
34 | CCACCTGCTCGCCGTCGACGCCGCCCTCGCCATCTTCAATCGGAGTCACCTAGTGCAG | 12800 fluorescence intensity (a.u.)
35 | CTGCACATTCCAAGTTTCCAACTGATGTTCTTTGTGGTCACGGAGTCACCTAGTGCAG | 9380 fluorescence intensity (a.u.)
36 | ATTCATTATCATCAGGAGTACCGCATACCTATTCTTAGAACGGAGTCACCTAGTGCAG | 8340 fluorescence intensity (a.u.)
37 | GTACTTGGTCACTAACCTTATCTCCTGACAGAAACTCTCTCGGAGTCACCTAGTGCAG | 8160 fluorescence intensity (a.u.)
38 | CTTTTTTATTACTTATTTTTTGACCGAATTGGTCCAGCTTCGGAGTCACCTAGTGCAG | 9870 fluorescence intensity (a.u.)
39 | GGTTTAGGGGTAAACTACCAATCTAACTTCACTTTTTCAACGGAGTCACCTAGTGCAG | 8650 fluorescence intensity (a.u.)
40 | ATAGTAGTTATCATGCACCATTTATCATTTGTTTTTTCTTCGGAGTCACCTAGTGCAG | 12900 fluorescence intensity (a.u.)
41 | GACGTGTTGGTGTGGAGCTAATCAATCTAGCCAAATACTTCGGAGTCACCTAGTGCAG | 8080 fluorescence intensity (a.u.)
42 | AAAAATAAGTTTTGTTATGATTTAGGCTGTGTTTAGTTCCCGGAGTCACCTAGTGCAG | 9350 fluorescence intensity (a.u.)

2 records drawn at random from those above, as already listed:
Row | Sequence | binding signal
8 | GTGTATTTATGGTTTTTTTTTCAACGTTTGACCATCCGTTCGGAGTCACCTAGTGCAG | 12300 fluorescence intensity (a.u.)
22 | CCACGTCGCCCTTGTTTATTTCCCACCAAACAAAAAAACCCGGAGTCACCTAGTGCAG | 9030 fluorescence intensity (a.u.)
